# At least one structure is not confirmed: it was looked up by name or label, or the drawing left a doubt.
# System: A. sinicus seedlings
# Assay: Direct selection of hairy root lines from A. sinicus seedlings
# Type: cell-based
# Conditions: control roots (DC-AR2); 75 μg/ml kanamycin
# Description: Four to seven day old seedlings of A. sinicus with roots removed were then fully immersed in the 1 day cultured bacterial suspension in a petri dish for 10 min, wiped with sterilized filter paper and then placed on partially water immersed filter paper and incubated under 16 h light ([…] m-2 s-1, cool white fluorescent lamps). Three days after co-cultivation, plants were transferred to Murashige and Skoog (Murashige, T., & Skoog, F. Physiol. Plant. 15:473-497, 1962), MS, medium solidified with 3g/l Gellan Gum containing 500 mg/l of carbenicillin disodium and 75 mg/l kanamycin.
# Since the A. sinicus hairy root lines initially selected for kanamycin-resistance but which were also transformed with the feedback-insensitive ASA2 cDNA show resistance to growth inhibition by 5MT (FIG. 18), we wanted to determine if direct selection could be done for A. sinicus hairy root line formation on medium containing 5MT (FIGS. 21A and 21B). Transformation of A. sinicus seedlings with DC-AR2 harboring pBIN-ASA2 gave rise to hairy root line formation on medium containing 0, 15, 20, 25, 30 and 40 μM 5MT but inhibition occurred at 50, 75 and 100 μM.
structure (smiles),measurement,value
NC[C@H]1O[C@H](O[C@H]2[C@H](O)[C@@H](O[C@H]3O[C@H](CO)[C@@H](O)[C@H](N)[C@H]3O)[C@H](N)C[C@@H]2N)[C@H](O)[C@@H](O)[C@@H]1O [kanamycin],Growth on kanamycin supplemented medium,did not grow

# From patent publication US6563025B1, “Nucleotide sequences encoding anthranilate synthase” (Board of Trustees of the University of Illinois, priority 1996, dated 2003)
